# Data taken from the supplement of paper PMC8728848.
# The other results are listed elsewhere or left out.
# B1: Gal 10 (Homo sapiens), Q05315 (protein)
# chain: MSLLPVPYTEAASLSTGSTVTIKGRPLVCFLNEPYLQVDFHTEMKEESDIVFHFQVCFGRRVVMNSREYGAWKQQVESKNMPFQDGQEFELSISVLPDKYQVMVNGQSSYTFDHRIKPEAVKMVQVWRDISLTKFNVSYLKR
# What was measured:
# Assay in all cases: glycan array binding signal (z-score within array); higher = stronger binding
# Conditions in all cases: glycan notation: IUPAC condensed, linker removed
# [1] = molecular target: GlcNAc(a1-4)Gal(b1-4)GlcNAc(b1-3)Gal(b1-4)[Fuc(a1-3)]GlcNAc(b1-3)Gal(b1-4)[Fuc(a1-3)]GlcNAc
# Procedure, shortened: (§1)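 The binding signal is a Z-score computed within each array. Data were drawn from 3228 arrays in the Consortium for Functional Glycomics database, restricted to those with a known protein sequence. Scores were averaged over arrays of the same protein sequence at different concentrations or buffers, and over linkers, and negative values can be taken as non-binding.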
# [2] = molecular target: GlcNAc(a1-6)Gal(b1-4)GlcNAc
# Procedure, shortened: as §1
# [3] = molecular target: GlcNAc(b1-2)Gal(b1-3)GalNAc
# Procedure, shortened: as §1
# [4] = molecular target: GlcNAc(b1-2)Man(a1-3)[GlcNAc(b1-2)Man(a1-6)]Man(b1-4)GlcNAc(b1-4)GlcNAc
# Procedure, shortened: as §1
# [5] = molecular target: GlcNAc(b1-2)Man(a1-3)[GlcNAc(b1-2)Man(a1-6)]Man(b1-4)GlcNAc(b1-4)[Fuc(a1-6)]GlcNAc
# Procedure, shortened: as §1
# [6] = molecular target: GlcNAc(b1-2)Man(a1-3)[GlcNAc(b1-4)][GlcNAc(b1-2)Man(a1-6)]Man(b1-4)GlcNAc(b1-4)GlcNAc
# Procedure, shortened: as §1
# [7] = molecular target: GlcNAc(b1-2)Man(a1-3)[GlcNAc(b1-4)][GlcNAc(b1-2)Man(a1-6)]Man(b1-4)GlcNAc(b1-4)[Fuc(a1-6)]GlcNAc
# Procedure, shortened: as §1
# [8] = molecular target: GlcNAc(b1-2)[GlcNAc(b1-4)]Man(a1-3)[GlcNAc(b1-2)Man(a1-6)]Man(b1-4)GlcNAc(b1-4)GlcNAc
# Procedure, shortened: as §1
# [9] = molecular target: GlcNAc(b1-2)[GlcNAc(b1-4)]Man(a1-3)[GlcNAc(b1-4)][GlcNAc(b1-2)Man(a1-6)]Man(b1-4)GlcNAc(b1-4)GlcNAc
# Procedure, shortened: as §1
# [10] = molecular target: GlcNAc(b1-2)[GlcNAc(b1-4)]Man(a1-3)[GlcNAc(b1-4)][GlcNAc(b1-2)[GlcNAc(b1-6)]Man(a1-6)]Man(b1-4)GlcNAc(b1-4)GlcNAc
# Procedure, shortened: as §1
# [11] = molecular target: GlcNAc(b1-2)[GlcNAc(b1-4)]Man(a1-3)[GlcNAc(b1-4)][GlcNAc(b1-2)[GlcNAc(b1-6)]Man(a1-6)]Man(b1-4)GlcNAc(b1-4)[Fuc(a1-6)]GlcNAc
# Procedure, shortened: as §1
# [12] = molecular target: GlcNAc(b1-2)[GlcNAc(b1-6)]Man(a1-6)[GlcNAc(b1-2)Man(a1-3)]Man(b1-4)GlcNAc(b1-4)GlcNAc
# Procedure, shortened: as §1
# [13] = molecular target: GlcNAc(b1-2)[GlcNAc(b1-6)]Man(a1-6)[GlcNAc(b1-2)Man(a1-3)]Man(b1-4)GlcNAc(b1-4)[Fuc(a1-6)]GlcNAc
# Procedure, shortened: as §1
# [14] = molecular target: GlcNAc(b1-2)[GlcNAc(b1-6)]Man(a1-6)[GlcNAc(b1-2)Man(a1-3)][GlcNAc(b1-4)]Man(b1-4)GlcNAc(b1-4)GlcNAc
# Procedure, shortened: as §1
# [15] = molecular target: GlcNAc(b1-2)[GlcNAc(b1-6)]Man(a1-6)[GlcNAc(b1-4)][GlcNAc(b1-2)Man(a1-3)]Man(b1-4)GlcNAc(b1-4)GlcNAc
# Procedure, shortened: as §1
# [16] = molecular target: GlcNAc(b1-3)Fuc
# Procedure, shortened: as §1
# [17] = molecular target: GlcNAc(b1-3)Gal
# Procedure, shortened: as §1
# [18] = molecular target: GlcNAc(b1-3)Gal(b1-3)GalNAc
# Procedure, shortened: as §1
# [19] = molecular target: GlcNAc(b1-3)Gal(b1-4)Glc
# Procedure, shortened: as §1
# [20] = molecular target: GlcNAc(b1-3)Gal(b1-4)GlcNAc
# Procedure, shortened: as §1
# [21] = molecular target: GlcNAc(b1-3)Gal(b1-4)GlcNAc(b1-2)Man(a1-3)[GlcNAc(b1-3)Gal(b1-4)GlcNAc(b1-2)Man(a1-6)]Man(b1-4)GlcNAc(b1-4)GlcNAc
# Procedure, shortened: as §1
# [22] = molecular target: GlcNAc(b1-3)Gal(b1-4)GlcNAc(b1-2)Man(a1-3)[GlcNAc(b1-3)Gal(b1-4)GlcNAc(b1-2)Man(a1-6)]Man(b1-4)GlcNAc(b1-4)[Fuc(a1-6)]GlcNAc
# Procedure, shortened: as §1
binder,measurement,setting,value
B1,glycan array binding signal (z-score),[1],3.48
same,glycan array binding signal (z-score),[2],0.467
same,glycan array binding signal (z-score),[3],-0.514
same,glycan array binding signal (z-score),[4],0.373
same,glycan array binding signal (z-score),[5],1.22
same,glycan array binding signal (z-score),[6],-0.451
same,glycan array binding signal (z-score),[7],-0.581
same,glycan array binding signal (z-score),[8],0.408
same,glycan array binding signal (z-score),[9],0.078
same,glycan array binding signal (z-score),[10],-0.448
same,glycan array binding signal (z-score),[11],-0.92
same,glycan array binding signal (z-score),[12],-0.17
same,glycan array binding signal (z-score),[13],0.356
same,glycan array binding signal (z-score),[14],-0.253
same,glycan array binding signal (z-score),[15],-0.849
same,glycan array binding signal (z-score),[16],-0.781
same,glycan array binding signal (z-score),[17],0.36
same,glycan array binding signal (z-score),[18],0.22
same,glycan array binding signal (z-score),[19],-0.313
same,glycan array binding signal (z-score),[20],-0.481
same,glycan array binding signal (z-score),[21],-0.263
same,glycan array binding signal (z-score),[22],-0.014

# Exported with bars between the fields: part of the list above.
binder | measurement | setting | value
B1 | glycan array binding signal (z-score) | [7] | -0.581
same | glycan array binding signal (z-score) | [8] | 0.408
